PubChem BioAssay AID1259254, NCATS | 2017

- Purpose: 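Genome-wide screen for genes that prevent DNA re-replication in cancer cells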 (primary screen)
- Cell system: human HCT116 colorectal cancer cells
- Reagent: single siRNA against human genes
- Duration: 3 days
- Measured: 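Imaged Hoechst DNA stain sorts each cell into a cycle phase by DNA amount; per plate, G2 fraction set to 0% for non-targeting and 100% for GMNN siRNA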
- Direction: G2 robust z-score: higher = more G2 cells, more excess DNA replication
- Call rule: 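An siRNA counts as active if its G2 robust z-score lies at least 5 MADs above the screen median; here such calls match roughly 38% of GMNN control or more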
Here is a random part of about 59,000 deposited reagents. About 1,550 of all reagents (2.6%) were called active. 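G2 share is only a proxy for re-replication; each gene was hit by three separate siRNAs, and active genes were retested.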 The numbers tell different reagents against one gene apart. Not all columns of the deposit are shown. Not given: the amount of reagent.

no.	target	reagent no.	G2 robust z-score	Outcome
1	ABHD17B	1	-1.11	inactive
2	ABHD17B	2	-0.887	inactive
3	ABHD17B	3	5.14	active
4	GSG1L2	1	0.321	inactive
5	GSG1L2	2	-0.437	inactive
6	GSG1L2	3	0.425	inactive
7	SIN3B	1	4.35	inactive
8	SIN3B	2	-0.434	inactive
9	SIN3B	3	-0.489	inactive
10	RLIG1	1	-0.298	inactive
11	RLIG1	2	2.82	inactive
12	RLIG1	3	0.465	inactive
13	POF1B	1	-0.241	inactive
14	POF1B	2	0.243	inactive
15	POF1B	3	1.02	inactive
16	ZBTB7C	1	2.99	inactive
17	ZBTB7C	2	-0.785	inactive
18	ZBTB7C	3	0.648	inactive
19	CXCL12	1	0.1	inactive
20	CXCL12	2	-0.976	inactive
21	CXCL12	3	0.835	inactive
22	CXCL10	1	0.0987	inactive
23	CXCL10	2	0.622	inactive
24	CXCL10	3	2.45	inactive
25	GET1P1	1	7.04	active
26	GET1P1	2	-0.204	inactive
27	GET1P1	3	-0.58	inactive
28	ANO6	1	1.2	inactive
29	ANO6	2	1.19	inactive
30	ANO6	3	8.34	active
31	SMIM23	1	2.08	inactive
32	SMIM23	2	-0.199	inactive
33	SMIM23	3	-0.824	inactive
34	ENTPD1-AS1	1	-0.393	inactive
35	ENTPD1-AS1	2	-0.474	inactive
36	ENTPD1-AS1	3	-0.491	inactive
37	CARD6	1	-0.888	inactive
38	CARD6	2	-0.459	inactive
39	CARD6	3	-0.118	inactive
40	ALG10	1	-0.57	inactive
41	ALG10	2	0.187	inactive
42	ALG10	3	0.512	inactive
43	CNTNAP3B	1	4.45	inactive
44	CNTNAP3B	2	-0.228	inactive
45	CNTNAP3B	3	2.47	inactive
46	CNTNAP3B	4	1.1	inactive
47	CNTNAP3B	5	-0.82	inactive
48	CNTNAP3B	6	0.473	inactive
49	LOC730668	1	1.11	inactive
50	LOC730668	2	-0.0809	inactive
51	LOC730668	3	-0.585	inactive
52	KCNJ15	1	-0.555	inactive
53	KCNJ15	2	2.96	inactive
54	KCNJ15	3	-0.399	inactive
55	BCL11A	1	0.243	inactive
56	BCL11A	2	2.57	inactive
57	BCL11A	3	-0.759	inactive
58	ERICH2	1	4.01	inactive
59	ERICH2	2	0.58	inactive
60	ERICH2	3	-0.869	inactive
61	ERICH2	4	0.48	inactive
62	ERICH2	5	1.85	inactive
63	ERICH2	6	0.316	inactive
64	ELANE	1	0.793	inactive
65	ELANE	2	-0.442	inactive
66	ELANE	3	1.06	inactive
67	NOCT	1	0.334	inactive
68	NOCT	2	1.09	inactive
69	NOCT	3	1.31	inactive
